# Laboratory results from the supplement of paper PMC10849652.
# Amino acid sequences for entries named in this document (tags omitted). A change or cut given only in a name is not applied to a line headed by its entry.
# UniProt P63241: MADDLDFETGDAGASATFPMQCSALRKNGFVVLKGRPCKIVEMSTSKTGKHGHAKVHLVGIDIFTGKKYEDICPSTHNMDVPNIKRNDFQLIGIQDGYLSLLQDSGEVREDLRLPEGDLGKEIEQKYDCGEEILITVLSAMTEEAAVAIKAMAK
# UniProt Q99613, whole entry, looked up: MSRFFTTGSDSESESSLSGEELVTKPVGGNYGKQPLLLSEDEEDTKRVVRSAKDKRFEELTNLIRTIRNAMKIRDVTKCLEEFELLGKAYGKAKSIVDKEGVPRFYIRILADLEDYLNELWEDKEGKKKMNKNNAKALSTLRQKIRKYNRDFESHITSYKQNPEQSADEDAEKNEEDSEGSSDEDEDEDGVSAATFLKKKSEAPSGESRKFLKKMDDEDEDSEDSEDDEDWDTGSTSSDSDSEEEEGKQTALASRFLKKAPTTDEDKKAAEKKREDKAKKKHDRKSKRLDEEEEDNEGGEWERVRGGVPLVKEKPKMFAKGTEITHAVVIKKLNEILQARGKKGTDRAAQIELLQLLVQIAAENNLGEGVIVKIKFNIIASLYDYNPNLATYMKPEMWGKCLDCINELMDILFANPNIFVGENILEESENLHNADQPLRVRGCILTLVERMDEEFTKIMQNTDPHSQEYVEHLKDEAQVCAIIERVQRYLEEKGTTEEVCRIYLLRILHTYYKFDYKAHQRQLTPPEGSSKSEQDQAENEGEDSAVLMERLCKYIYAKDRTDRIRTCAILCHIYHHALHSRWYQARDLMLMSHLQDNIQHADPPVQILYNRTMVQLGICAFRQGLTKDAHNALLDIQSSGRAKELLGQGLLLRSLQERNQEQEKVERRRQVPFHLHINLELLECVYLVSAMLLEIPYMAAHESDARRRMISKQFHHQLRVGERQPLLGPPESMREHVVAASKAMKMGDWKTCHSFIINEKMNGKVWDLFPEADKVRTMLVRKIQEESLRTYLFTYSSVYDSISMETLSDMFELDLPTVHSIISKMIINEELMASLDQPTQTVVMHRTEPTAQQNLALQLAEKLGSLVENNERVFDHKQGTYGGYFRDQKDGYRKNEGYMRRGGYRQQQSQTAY
# UniProt Q9Y2J2, whole entry, looked up: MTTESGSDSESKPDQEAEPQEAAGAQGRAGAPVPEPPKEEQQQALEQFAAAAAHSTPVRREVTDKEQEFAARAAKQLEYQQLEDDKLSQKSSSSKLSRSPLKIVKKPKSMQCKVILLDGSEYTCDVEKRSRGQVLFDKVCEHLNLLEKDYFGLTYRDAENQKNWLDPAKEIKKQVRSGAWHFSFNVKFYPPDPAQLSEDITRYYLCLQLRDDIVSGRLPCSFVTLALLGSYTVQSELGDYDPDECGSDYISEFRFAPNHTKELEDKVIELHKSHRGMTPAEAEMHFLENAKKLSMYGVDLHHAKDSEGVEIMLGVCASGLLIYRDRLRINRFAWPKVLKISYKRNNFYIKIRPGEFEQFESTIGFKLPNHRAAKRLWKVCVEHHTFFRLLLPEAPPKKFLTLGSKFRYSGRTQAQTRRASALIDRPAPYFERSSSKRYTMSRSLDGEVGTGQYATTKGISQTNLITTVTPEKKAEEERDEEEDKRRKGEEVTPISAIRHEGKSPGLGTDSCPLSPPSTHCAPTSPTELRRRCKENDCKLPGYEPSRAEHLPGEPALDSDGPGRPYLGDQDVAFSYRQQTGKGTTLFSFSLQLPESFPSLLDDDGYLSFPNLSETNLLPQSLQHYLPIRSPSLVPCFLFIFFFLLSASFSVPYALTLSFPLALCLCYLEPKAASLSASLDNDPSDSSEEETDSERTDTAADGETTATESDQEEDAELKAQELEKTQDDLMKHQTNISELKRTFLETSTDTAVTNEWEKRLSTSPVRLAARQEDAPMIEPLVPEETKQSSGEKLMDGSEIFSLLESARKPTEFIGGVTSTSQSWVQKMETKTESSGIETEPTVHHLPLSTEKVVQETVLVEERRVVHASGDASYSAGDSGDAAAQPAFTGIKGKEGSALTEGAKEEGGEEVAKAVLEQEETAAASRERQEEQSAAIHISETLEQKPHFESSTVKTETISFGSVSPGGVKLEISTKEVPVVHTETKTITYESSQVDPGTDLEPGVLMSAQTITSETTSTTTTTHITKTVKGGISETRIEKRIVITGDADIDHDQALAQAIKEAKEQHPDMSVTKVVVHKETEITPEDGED
# UniProt Q9UHY7: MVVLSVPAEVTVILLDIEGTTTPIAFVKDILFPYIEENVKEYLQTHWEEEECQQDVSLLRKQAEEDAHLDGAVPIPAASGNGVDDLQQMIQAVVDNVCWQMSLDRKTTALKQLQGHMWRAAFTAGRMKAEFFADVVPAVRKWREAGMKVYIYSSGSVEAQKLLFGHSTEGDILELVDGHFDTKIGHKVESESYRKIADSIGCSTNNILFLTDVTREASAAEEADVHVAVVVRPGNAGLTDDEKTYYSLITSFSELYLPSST
# UniProt P78344: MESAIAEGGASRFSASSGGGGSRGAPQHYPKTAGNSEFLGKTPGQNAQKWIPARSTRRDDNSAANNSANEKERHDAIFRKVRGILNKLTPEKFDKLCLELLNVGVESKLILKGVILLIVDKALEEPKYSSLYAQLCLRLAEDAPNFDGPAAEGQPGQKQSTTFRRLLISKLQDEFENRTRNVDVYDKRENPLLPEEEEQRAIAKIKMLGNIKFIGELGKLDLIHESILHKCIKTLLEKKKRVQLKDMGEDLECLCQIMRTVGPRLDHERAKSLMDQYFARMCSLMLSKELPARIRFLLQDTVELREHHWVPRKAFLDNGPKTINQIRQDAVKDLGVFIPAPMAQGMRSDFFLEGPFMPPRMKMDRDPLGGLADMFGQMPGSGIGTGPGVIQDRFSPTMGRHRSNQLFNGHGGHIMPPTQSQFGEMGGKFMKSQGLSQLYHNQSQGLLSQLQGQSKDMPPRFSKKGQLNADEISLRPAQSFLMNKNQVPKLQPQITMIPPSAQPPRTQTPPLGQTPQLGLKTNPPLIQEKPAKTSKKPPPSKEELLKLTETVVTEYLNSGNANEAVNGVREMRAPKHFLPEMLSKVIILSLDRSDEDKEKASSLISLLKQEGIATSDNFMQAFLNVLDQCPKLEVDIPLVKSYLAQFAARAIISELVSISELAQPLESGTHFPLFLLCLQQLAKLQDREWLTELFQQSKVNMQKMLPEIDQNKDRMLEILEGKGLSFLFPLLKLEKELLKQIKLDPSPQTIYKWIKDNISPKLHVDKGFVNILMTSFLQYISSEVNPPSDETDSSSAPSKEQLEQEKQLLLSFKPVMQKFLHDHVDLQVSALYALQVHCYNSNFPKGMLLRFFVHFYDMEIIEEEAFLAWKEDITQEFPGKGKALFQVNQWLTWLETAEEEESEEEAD
# UniProt O95208: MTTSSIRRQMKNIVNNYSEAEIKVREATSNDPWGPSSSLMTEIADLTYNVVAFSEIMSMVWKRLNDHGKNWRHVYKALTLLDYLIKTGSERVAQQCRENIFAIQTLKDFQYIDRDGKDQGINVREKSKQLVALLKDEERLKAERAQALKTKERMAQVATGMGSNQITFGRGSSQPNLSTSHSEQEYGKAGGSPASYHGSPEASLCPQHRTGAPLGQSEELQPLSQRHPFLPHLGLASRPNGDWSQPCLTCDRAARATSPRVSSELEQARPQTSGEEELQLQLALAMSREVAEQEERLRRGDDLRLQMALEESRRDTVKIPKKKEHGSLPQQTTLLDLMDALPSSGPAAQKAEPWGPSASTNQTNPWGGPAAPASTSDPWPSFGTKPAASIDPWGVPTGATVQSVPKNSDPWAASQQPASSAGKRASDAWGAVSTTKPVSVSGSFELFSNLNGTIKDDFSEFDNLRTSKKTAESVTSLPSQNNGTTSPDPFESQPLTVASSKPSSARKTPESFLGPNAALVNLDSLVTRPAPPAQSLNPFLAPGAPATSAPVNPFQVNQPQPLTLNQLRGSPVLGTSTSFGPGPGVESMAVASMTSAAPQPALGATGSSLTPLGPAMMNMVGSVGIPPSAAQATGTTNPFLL
# UniProt Q5J8M3, whole entry, looked up: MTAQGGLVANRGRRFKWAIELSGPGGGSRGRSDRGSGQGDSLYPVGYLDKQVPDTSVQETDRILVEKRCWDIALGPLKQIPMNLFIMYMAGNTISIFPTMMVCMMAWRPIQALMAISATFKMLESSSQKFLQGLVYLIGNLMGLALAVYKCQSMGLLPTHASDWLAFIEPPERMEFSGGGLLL
# UniProt Q09472, whole entry, looked up: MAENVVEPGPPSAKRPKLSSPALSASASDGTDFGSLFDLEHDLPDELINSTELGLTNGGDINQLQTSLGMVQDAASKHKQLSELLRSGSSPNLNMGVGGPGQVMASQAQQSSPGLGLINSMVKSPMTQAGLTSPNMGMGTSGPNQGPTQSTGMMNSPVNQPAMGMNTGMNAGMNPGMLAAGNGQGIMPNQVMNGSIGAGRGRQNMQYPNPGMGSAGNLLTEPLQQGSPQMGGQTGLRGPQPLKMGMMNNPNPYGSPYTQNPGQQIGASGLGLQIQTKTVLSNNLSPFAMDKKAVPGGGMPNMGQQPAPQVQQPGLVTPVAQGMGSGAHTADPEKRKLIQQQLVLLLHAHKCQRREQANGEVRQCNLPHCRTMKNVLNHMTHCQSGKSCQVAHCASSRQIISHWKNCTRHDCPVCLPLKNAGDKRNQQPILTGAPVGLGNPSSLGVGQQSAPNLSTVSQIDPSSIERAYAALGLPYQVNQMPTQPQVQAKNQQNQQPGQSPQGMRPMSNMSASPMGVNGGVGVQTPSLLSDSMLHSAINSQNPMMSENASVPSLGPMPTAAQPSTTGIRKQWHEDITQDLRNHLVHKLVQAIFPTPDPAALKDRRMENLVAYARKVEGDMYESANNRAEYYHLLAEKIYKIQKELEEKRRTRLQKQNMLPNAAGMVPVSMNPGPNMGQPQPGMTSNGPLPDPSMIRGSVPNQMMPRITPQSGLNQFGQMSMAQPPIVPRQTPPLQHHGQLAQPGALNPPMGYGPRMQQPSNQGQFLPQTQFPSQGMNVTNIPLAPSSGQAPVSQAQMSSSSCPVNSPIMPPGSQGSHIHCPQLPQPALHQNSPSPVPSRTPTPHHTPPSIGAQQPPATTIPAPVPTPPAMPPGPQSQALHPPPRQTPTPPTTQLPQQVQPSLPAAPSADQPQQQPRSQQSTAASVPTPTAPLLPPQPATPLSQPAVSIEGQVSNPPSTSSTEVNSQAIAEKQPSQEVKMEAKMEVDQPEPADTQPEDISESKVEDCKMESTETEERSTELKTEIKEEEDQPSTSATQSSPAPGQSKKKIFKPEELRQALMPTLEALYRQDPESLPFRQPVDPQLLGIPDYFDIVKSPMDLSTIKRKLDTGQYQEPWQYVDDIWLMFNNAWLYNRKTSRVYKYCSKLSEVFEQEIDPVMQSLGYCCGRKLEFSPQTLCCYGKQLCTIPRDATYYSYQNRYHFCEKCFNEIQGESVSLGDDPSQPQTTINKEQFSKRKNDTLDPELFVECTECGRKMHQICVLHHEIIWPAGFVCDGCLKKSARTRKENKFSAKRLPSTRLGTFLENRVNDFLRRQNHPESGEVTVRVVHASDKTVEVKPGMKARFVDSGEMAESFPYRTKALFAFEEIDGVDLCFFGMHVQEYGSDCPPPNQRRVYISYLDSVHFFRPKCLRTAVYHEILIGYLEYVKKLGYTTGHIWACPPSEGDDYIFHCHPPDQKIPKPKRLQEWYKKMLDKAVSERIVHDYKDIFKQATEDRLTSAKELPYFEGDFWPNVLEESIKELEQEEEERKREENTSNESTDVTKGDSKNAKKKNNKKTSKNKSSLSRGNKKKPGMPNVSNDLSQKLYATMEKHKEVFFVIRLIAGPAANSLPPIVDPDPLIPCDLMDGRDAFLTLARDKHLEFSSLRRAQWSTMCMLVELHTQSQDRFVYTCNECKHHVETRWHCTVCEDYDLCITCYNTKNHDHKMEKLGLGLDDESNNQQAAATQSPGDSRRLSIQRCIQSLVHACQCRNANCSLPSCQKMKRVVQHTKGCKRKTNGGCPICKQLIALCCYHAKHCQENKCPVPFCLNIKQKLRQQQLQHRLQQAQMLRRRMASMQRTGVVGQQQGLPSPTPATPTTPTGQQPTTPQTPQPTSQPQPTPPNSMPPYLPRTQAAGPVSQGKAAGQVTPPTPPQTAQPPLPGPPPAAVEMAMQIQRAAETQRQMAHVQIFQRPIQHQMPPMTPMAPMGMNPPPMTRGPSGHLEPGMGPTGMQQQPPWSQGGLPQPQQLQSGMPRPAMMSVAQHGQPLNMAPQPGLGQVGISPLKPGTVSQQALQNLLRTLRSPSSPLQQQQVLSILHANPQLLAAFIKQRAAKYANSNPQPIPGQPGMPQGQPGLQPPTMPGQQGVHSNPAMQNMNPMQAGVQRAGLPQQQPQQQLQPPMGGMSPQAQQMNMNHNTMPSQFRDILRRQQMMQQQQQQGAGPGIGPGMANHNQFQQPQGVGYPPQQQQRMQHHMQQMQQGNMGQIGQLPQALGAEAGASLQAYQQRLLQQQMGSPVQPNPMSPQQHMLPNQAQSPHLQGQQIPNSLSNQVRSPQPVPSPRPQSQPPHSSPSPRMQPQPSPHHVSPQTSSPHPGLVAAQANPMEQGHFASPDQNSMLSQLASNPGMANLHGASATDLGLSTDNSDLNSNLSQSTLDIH
# The other results are listed elsewhere or left out.
# Experiments:
# Test in all cases: log2 fold change, soluble protein after heating vs DMSO (PISA); higher = thermal stabilisation; K562 lysate, 10 uM; active = over 0.2 and 3.5 SD of the protein, either way, in both replicates (recomputed)
# [1] = compound: CS(=O)(=O)CCNCc1ccc(-c2ccc3ncnc(Nc4ccc(OCc5cccc(F)c5)c(Cl)c4)c3c2)o1 [lapatinib]
# Outline: (§1)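 Pellets of K562 cells were dounce-homogenised in PBS pH 7.4 with 1 mM MgCl2, and the crude extract was held at 1 mg/mL protein for a 30 min treatment with 10 μM compound. Aliquots were heated for 3 min over 48°C-58°C and pooled before NP-40 was added to 0.5% at 4°C. The supernatant from 21,000xg for 90 min was quantified by TMTpro 16plex LC-MS/MS with channel sums equalised. Values are reported from duplicates as log-two fold change in thermal stability relative to solvent controls.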
# [2] = compound: CS(=O)(=O)N1CCN(Cc2cc3nc(-c4cccc5[nH]ncc45)nc(N4CCOCC4)c3s2)CC1 [pictilisib]
# Outline: as §1
# [3] = compound: C[C@@H](Oc1cc(-c2cnn(C3CCNCC3)c2)cnc1N)c1c(Cl)ccc(F)c1Cl [crizotinib]
# Outline: as §1
# [4] = compound: C[C@H](C1=CC=C(C=C1)C(=O)NC2=C3C=CNC3=NC=C2)N
# Outline: as §1
# [5] = compound: C[C@H](Nc1ncnc2nc[nH]c12)c1cc2cccc(Cl)c2c(=O)n1-c1ccccc1 [duvelisib]
# Outline: as §1
# [6] = compound: Cc1cc(Nc2cc(CN3CCOCC3)c3nc(C)c(Cc4ccc(Cl)cc4F)n3n2)n[nH]1 [gandotinib]
# Outline: as §1
# [7] = compound: Cc1cc(Nc2cc(N3CCN(C)CC3)nc(Sc3ccc(NC(=O)C4CC4)cc3)n2)n[nH]1 [tozasertib]
# Outline: as §1
# [8] = compound: Cc1ccc(-n2nc(C(C)(C)C)cc2NC(=O)Nc2ccc(OCCN3CCOCC3)c3ccccc23)cc1 [doramapimod]
# Outline: as §1
# [9] = compound: Cc1ccc(NC(=O)c2ccc(CN3CC[C@H](N(C)C)C3)c(C(F)(F)F)c2)cc1Nc1nccc(-c2cncnc2)n1 [bafetinib]
# Outline: as §1
# [10] = compound: Cc1cccc(CC(=O)N2CCc3c2ccc(-c2cn(C)c4ncnc(N)c24)c3F)n1
# Outline: as §1
# [11] = compound: Cc1cn(-c2cc(NC(=O)c3ccc(C)c(Nc4nccc(-c5cccnc5)n4)c3)cc(C(F)(F)F)c2)cn1 [nilotinib]
# Outline: as §1
# [12] = compound: Cc1nc(Nc2n[nH]c3c2CN(C(=O)N[C@H](CN(C)C)c2ccccc2)C3(C)C)c2sccc2n1
# Outline: as §1
# [13] = compound: Cc1nc(Nc2ncc(C(=O)Nc3c(C)cccc3Cl)s2)cc(N2CCN(CCO)CC2)n1 [dasatinib]
# Outline: as §1
# [14] = compound: Cc1ncc(-c2ccnc(Nc3ccc(S(C)(=O)=O)cc3)n2)n1C(C)C
# Outline: as §1
# [15] = compound: Cn1cc(-c2ccc3c(c2)CCN3C(=O)Cc2cccc(C(F)(F)F)c2)c2c(N)ncnc21
# Outline: as §1
# [16] = compound: Cn1cc(CNCC2CCN(c3ncc(C(=O)NO)cn3)CC2)c2ccccc21 [quisinostat]
# Outline: as §1
# [17] = compound: Cn1cncc1[C@@](N)(c1ccc(Cl)cc1)c1ccc2c(c1)c(-c1cccc(Cl)c1)cc(=O)n2C [tipifarnib]
# Outline: as §1
# [18] = compound: NC(=O)Nc1cc(-c2cccc(F)c2)sc1C(=O)N[C@H]1CCCNC1
# Outline: as §1
# [19] = compound: NC(=O)c1cnc(N[C@@H]2CCCC[C@@H]2N)nc1Nc1cccc(-n2nccn2)c1
# Outline: as §1
# [20] = compound: NC1(c2ccc(-c3nc4ccn5c(=O)[nH]nc5c4cc3-c3ccccc3)cc2)CCC1
# Outline: as §1
Target,log2 fold change [1],log2 fold change [2],log2 fold change [3],log2 fold change [4],log2 fold change [5],log2 fold change [6],log2 fold change [7],log2 fold change [8],log2 fold change [9],log2 fold change [10],log2 fold change [11],log2 fold change [12],log2 fold change [13],log2 fold change [14],log2 fold change [15],log2 fold change [16],log2 fold change [17],log2 fold change [18],log2 fold change [19],log2 fold change [20]
EIF5A isoform 2 (UniProt P63241),inactive: -0.005,inactive: -0.023,inactive: 0.031,inactive: 0.039,inactive: 0.011,inactive: -0.002,inactive: -0.003,inactive: -0.005,inactive: 0.031,inactive: -0.05,inactive: 0.025,inactive: -0.011,inactive: 0.018,inactive: 0.013,inactive: 0.004,inactive: 0.048,inactive: 0.014,inactive: -0.028,inactive: -0.008,inactive: -0.009
EPCAM (UniProt P16422),inactive: -0.033,inactive: -0.017,inactive: 0.039,inactive: 0.029,inactive: 0.022,inactive: -0.07,inactive: -0.03,inactive: -0.003,inactive: -0.025,inactive: -0.05,inactive: 0.009,inactive: -0.021,inactive: -0.023,inactive: -0.006,inactive: -0.015,inactive: -0.076,inactive: 0.012,inactive: 0.007,inactive: 0.062,inactive: 0.008
EIF3C (UniProt Q99613),inactive: -0.015,inactive: 0.011,inactive: -0.06,inactive: -0.029,inactive: 0.016,inactive: -0.066,inactive: -0.014,inactive: 0.016,inactive: -0.038,inactive: 0.069,inactive: -0.03,inactive: 0.006,inactive: -0.026,inactive: -0.008,inactive: 0.038,inactive: -0.005,inactive: 0.011,inactive: 0.006,inactive: 0.002,inactive: -0.018
EPB41L3 (UniProt Q9Y2J2),inactive: 0.002,inactive: 0,inactive: 0.097,inactive: -0.029,inactive: -0.024,inactive: 0.02,inactive: 0.034,inactive: 0.027,inactive: -0.019,inactive: 0.067,inactive: -0.036,inactive: 0.027,inactive: 0.021,inactive: 0.009,inactive: 0.015,inactive: 0.136,inactive: -0.015,inactive: 0,inactive: -0.022,inactive: 0.053
ENOPH1 (UniProt Q9UHY7),inactive: -0.024,inactive: -0.017,inactive: -0.035,inactive: -0.003,inactive: -0.035,inactive: -0.036,inactive: -0.018,inactive: -0.022,inactive: -0.07,inactive: -0.012,inactive: -0.03,inactive: 0.011,inactive: 0.006,inactive: 0.157,inactive: 0.003,inactive: 0.02,inactive: -0.02,inactive: 0.01,inactive: -0.016,inactive: -0.02
EPB41L1 (UniProt Q9H4G0),inactive: 0.022,inactive: 0.023,inactive: -0.048,inactive: -0.036,inactive: -0.059,inactive: -0.021,inactive: 0.083,inactive: 0.048,inactive: -0.052,inactive: 0.032,inactive: -0.025,inactive: -0.085,inactive: 0.02,inactive: 0.018,inactive: -0.01,inactive: -0.062,inactive: 0.008,inactive: 0.127,inactive: 0.011,inactive: -0.079
ERCC3 (UniProt P19447),inactive: 0.035,inactive: -0.016,inactive: -0.089,inactive: -0.002,inactive: -0.032,inactive: -0.116,inactive: 0,inactive: 0.039,inactive: -0.105,inactive: 0.039,inactive: -0.024,inactive: 0.01,inactive: -0.012,inactive: 0.027,inactive: 0.033,inactive: -0.067,inactive: 0.043,inactive: 0.055,inactive: -0.037,inactive: 0.027
EIF5B (UniProt O60841),inactive: -0.011,inactive: -0.013,inactive: 0.015,inactive: -0.007,inactive: -0.003,inactive: -0.007,inactive: 0,inactive: -0.028,inactive: 0.068,inactive: 0.007,inactive: -0.006,inactive: 0,inactive: 0.018,inactive: 0,inactive: -0.003,inactive: 0.049,inactive: 0.003,inactive: -0.007,inactive: -0.012,inactive: -0.012
EIF4G2 (UniProt P78344),inactive: -0.012,inactive: 0.049,inactive: 0.007,inactive: -0.006,inactive: -0.055,inactive: -0.093,inactive: 0.014,inactive: 0.053,inactive: -0.021,inactive: 0.018,inactive: 0.021,inactive: 0,inactive: -0.095,inactive: 0,inactive: 0.051,inactive: -0.02,inactive: -0.006,inactive: 0.001,inactive: 0.001,inactive: 0.029
EPN2 (UniProt O95208),inactive: -0.007,inactive: -0.037,inactive: -0.009,active: -0.407,inactive: 0.055,inactive: 0.165,inactive: -0.036,inactive: 0.065,inactive: -0.027,inactive: 0.093,inactive: -0.001,inactive: 0.01,inactive: -0.011,inactive: 0.017,inactive: 0.054,inactive: -0.016,inactive: -0.07,inactive: 0.021,inactive: 0.01,inactive: -0.016
EMC4 (UniProt Q5J8M3),inactive: -0.026,inactive: 0.012,inactive: 0.001,inactive: 0.041,inactive: 0.059,inactive: -0.071,inactive: 0.069,inactive: 0.048,inactive: 0.063,inactive: 0.036,inactive: 0,inactive: 0.024,inactive: -0.023,inactive: -0.011,inactive: 0.018,inactive: -0.006,inactive: -0.05,inactive: -0.041,inactive: -0.007,inactive: -0.041
EIPR1 (UniProt Q53HC9),inactive: -0.001,inactive: -0.009,inactive: -0.01,inactive: -0.028,inactive: 0.001,inactive: 0.009,inactive: 0.017,inactive: 0.016,inactive: 0.018,inactive: 0.049,inactive: 0.078,inactive: -0.043,inactive: -0.048,inactive: 0.02,inactive: 0.042,inactive: 0.021,inactive: -0.001,inactive: -0.013,inactive: 0.027,inactive: -0.013
ENO1 isoform 2 (UniProt P06733),inactive: 0.005,inactive: -0.012,inactive: -0.019,active: -0.285,inactive: 0.049,inactive: 0.153,inactive: 0.026,inactive: -0.019,inactive: 0.07,inactive: 0.222,inactive: 0.01,inactive: -0.009,inactive: 0.021,inactive: -0.036,inactive: -0.012,inactive: -0.038,inactive: 0.035,inactive: -0.007,inactive: -0.008,inactive: 0.004
EIF2S2 (UniProt P20042),inactive: 0.004,inactive: 0.017,inactive: -0.003,inactive: 0.085,inactive: 0.024,inactive: -0.075,inactive: 0.006,inactive: -0.007,inactive: -0.002,inactive: 0,inactive: -0.012,inactive: 0.038,inactive: 0.005,inactive: 0.03,inactive: -0.012,inactive: 0.013,inactive: 0.006,inactive: -0.03,inactive: 0.008,inactive: -0.007
EP300 (UniProt Q09472),inactive: 0.062,inactive: -0.078,inactive: 0.047,inactive: -0.101,inactive: -0.037,inactive: -0.047,inactive: 0.065,inactive: -0.016,inactive: 0.044,inactive: 0.089,inactive: 0.036,inactive: 0.037,inactive: -0.028,inactive: 0.081,inactive: 0.007,inactive: 0.03,inactive: -0.043,inactive: 0.036,inactive: 0.023,inactive: 0.046
EIF2AK4 (UniProt Q9P2K8),inactive: -0.048,inactive: -0.015,inactive: 0.018,inactive: -0.029,inactive: -0.007,inactive: 0.002,inactive: 0.065,inactive: -0.02,inactive: -0.079,inactive: 0.039,inactive: -0.022,inactive: 0,inactive: -0.021,inactive: -0.001,inactive: 0.068,inactive: -0.074,inactive: -0.007,inactive: 0.05,inactive: 0.044,inactive: -0.031

# A second format for some results above.
Target | log2 fold change [1] | log2 fold change [2] | log2 fold change [3] | log2 fold change [4] | log2 fold change [5] | log2 fold change [6] | log2 fold change [7] | log2 fold change [8] | log2 fold change [9] | log2 fold change [10] | log2 fold change [11] | log2 fold change [12] | log2 fold change [13] | log2 fold change [14] | log2 fold change [15] | log2 fold change [16] | log2 fold change [17] | log2 fold change [18] | log2 fold change [19] | log2 fold change [20]
EPB41L3 (UniProt Q9Y2J2) | inactive: 0.002 | inactive: 0 | inactive: 0.097 | inactive: -0.029 | inactive: -0.024 | inactive: 0.02 | inactive: 0.034 | inactive: 0.027 | inactive: -0.019 | inactive: 0.067 | inactive: -0.036 | inactive: 0.027 | inactive: 0.021 | inactive: 0.009 | inactive: 0.015 | inactive: 0.136 | inactive: -0.015 | inactive: 0 | inactive: -0.022 | inactive: 0.053
ENO1 isoform 2 (UniProt P06733) | inactive: 0.005 | inactive: -0.012 | inactive: -0.019 | active: -0.285 | inactive: 0.049 | inactive: 0.153 | inactive: 0.026 | inactive: -0.019 | inactive: 0.07 | inactive: 0.222 | inactive: 0.01 | inactive: -0.009 | inactive: 0.021 | inactive: -0.036 | inactive: -0.012 | inactive: -0.038 | inactive: 0.035 | inactive: -0.007 | inactive: -0.008 | inactive: 0.004
